In the supplement of paper PMC11006884:
Most of the targets with a hit are listed elsewhere, so they are rarer here than in the full data. Single values of this set are uncertain. This is a selection; strong and weak results do not stand in their true shares.

Amino acid sequences for entries named in this document (tags omitted). A change or cut given only in a name is not applied to a line headed by its entry.
UniProt Q15723: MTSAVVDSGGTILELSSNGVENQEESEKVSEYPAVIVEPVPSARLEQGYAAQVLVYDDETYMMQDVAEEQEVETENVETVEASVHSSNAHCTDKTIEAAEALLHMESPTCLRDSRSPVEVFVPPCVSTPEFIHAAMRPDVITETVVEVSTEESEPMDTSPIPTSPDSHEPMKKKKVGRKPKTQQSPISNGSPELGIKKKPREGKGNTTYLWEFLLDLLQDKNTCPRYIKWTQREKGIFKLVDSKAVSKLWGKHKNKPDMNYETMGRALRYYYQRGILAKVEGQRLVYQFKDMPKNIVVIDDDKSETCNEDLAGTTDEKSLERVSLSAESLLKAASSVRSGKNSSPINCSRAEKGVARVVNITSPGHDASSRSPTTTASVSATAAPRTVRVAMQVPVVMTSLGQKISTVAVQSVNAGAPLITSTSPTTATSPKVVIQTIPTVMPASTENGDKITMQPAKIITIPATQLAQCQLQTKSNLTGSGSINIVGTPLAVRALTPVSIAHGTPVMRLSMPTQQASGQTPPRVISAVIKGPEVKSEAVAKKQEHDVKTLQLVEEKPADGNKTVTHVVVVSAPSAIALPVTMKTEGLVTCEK
UniProt Q15788: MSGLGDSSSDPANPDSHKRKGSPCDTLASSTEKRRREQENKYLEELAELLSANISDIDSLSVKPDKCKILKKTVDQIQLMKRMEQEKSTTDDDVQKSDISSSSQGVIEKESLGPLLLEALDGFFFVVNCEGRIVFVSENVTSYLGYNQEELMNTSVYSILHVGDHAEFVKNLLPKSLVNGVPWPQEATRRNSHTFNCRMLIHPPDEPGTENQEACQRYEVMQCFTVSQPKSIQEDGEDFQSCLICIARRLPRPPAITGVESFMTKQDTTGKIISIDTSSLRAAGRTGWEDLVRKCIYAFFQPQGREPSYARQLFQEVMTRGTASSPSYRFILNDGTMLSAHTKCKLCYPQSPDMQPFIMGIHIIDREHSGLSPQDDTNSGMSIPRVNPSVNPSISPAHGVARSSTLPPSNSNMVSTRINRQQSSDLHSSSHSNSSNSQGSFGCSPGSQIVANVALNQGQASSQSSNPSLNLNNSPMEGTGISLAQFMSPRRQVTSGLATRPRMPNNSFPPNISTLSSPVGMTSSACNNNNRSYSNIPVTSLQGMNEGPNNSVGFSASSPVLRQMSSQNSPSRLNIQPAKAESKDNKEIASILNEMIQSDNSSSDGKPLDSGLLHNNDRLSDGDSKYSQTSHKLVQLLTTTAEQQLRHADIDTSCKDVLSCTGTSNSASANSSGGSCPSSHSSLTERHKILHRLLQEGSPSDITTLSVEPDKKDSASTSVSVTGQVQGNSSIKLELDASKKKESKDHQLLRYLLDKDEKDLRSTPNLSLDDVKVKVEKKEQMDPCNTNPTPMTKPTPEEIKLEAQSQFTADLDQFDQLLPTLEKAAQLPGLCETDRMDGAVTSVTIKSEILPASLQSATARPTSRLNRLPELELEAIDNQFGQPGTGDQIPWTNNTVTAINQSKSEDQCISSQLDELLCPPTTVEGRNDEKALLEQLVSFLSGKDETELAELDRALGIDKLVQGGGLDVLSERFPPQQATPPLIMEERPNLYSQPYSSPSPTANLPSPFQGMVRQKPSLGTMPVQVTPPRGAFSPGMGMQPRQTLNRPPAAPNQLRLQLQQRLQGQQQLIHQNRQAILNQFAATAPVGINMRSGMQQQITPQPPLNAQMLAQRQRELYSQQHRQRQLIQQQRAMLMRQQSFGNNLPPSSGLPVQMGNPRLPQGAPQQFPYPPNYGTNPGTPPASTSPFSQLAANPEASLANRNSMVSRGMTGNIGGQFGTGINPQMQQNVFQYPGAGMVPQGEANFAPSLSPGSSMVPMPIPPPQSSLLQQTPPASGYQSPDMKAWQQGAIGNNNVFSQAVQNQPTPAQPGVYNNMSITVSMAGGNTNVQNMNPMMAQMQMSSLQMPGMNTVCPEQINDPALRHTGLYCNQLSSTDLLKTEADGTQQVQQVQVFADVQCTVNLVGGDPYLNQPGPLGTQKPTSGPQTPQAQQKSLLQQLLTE
UniProt Q15181: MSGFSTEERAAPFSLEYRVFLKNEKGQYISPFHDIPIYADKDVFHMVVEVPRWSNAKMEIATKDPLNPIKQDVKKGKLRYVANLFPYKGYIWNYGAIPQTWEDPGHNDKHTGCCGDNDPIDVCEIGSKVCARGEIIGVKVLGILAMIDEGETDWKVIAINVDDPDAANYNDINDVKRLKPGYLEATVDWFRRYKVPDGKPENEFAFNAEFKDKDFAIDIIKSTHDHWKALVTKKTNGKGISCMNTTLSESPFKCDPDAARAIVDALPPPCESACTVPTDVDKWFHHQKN
UniProt Q4VC31: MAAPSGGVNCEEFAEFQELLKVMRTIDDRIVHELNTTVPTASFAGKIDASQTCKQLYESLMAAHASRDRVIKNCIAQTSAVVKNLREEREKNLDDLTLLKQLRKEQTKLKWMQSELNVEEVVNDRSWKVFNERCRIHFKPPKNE
UniProt Q15643: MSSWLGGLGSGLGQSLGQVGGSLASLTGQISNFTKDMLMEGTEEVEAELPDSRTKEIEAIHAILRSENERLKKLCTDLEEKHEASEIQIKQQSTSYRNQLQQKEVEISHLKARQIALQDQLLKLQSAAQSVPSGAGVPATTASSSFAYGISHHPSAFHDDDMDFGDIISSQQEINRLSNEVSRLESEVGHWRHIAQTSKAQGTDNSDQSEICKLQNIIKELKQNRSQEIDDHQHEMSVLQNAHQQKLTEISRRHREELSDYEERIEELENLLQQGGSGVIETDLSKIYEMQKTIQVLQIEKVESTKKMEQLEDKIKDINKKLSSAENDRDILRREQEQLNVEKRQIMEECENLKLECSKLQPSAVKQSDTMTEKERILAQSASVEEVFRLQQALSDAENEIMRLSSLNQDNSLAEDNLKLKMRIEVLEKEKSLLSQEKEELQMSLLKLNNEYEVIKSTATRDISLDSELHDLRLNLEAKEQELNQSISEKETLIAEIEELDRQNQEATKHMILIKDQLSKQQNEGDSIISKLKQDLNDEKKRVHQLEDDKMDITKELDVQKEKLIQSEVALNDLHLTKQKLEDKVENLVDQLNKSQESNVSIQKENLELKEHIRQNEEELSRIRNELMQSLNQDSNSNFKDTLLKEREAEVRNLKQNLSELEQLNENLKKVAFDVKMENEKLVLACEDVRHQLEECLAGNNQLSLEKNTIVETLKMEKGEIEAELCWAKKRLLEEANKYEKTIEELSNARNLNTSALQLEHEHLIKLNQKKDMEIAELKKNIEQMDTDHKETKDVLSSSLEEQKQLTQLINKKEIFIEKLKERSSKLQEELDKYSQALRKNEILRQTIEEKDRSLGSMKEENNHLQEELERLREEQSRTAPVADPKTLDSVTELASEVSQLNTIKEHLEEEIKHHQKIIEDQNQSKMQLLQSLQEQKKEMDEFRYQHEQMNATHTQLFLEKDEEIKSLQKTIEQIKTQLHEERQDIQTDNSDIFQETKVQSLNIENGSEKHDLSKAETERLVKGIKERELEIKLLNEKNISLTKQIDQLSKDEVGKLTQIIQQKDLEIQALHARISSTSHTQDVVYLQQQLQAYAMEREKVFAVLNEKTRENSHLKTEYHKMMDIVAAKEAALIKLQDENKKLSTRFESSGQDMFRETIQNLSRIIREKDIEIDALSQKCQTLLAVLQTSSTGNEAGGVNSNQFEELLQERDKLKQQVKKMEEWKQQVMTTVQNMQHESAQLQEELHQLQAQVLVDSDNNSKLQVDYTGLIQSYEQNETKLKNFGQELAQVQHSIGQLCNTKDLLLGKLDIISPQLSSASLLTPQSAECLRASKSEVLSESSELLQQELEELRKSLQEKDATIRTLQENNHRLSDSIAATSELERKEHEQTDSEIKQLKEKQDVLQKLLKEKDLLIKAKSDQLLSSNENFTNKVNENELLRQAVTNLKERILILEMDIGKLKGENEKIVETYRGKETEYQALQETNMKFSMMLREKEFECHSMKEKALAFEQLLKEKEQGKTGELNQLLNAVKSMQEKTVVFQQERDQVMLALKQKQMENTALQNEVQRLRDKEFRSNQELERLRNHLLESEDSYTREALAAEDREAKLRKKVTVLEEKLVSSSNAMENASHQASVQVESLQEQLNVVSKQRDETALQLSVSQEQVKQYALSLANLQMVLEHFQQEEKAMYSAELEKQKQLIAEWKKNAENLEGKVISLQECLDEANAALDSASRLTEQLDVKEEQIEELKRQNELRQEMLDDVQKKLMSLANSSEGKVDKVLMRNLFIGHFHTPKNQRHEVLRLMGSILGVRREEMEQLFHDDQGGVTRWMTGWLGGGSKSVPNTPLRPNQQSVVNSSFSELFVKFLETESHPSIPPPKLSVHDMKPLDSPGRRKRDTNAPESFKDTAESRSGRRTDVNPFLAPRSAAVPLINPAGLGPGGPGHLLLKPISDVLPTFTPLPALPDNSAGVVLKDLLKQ
UniProt Q15717, whole entry: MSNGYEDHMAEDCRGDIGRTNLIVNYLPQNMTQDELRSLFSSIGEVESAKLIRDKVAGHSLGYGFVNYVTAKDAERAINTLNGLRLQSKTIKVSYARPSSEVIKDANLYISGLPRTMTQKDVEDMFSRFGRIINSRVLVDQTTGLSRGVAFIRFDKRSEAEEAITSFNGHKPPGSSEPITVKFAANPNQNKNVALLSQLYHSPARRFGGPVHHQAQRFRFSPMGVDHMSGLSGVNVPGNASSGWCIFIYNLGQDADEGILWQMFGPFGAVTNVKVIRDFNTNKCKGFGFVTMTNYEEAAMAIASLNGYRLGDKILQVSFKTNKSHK
UniProt Q4KMQ2: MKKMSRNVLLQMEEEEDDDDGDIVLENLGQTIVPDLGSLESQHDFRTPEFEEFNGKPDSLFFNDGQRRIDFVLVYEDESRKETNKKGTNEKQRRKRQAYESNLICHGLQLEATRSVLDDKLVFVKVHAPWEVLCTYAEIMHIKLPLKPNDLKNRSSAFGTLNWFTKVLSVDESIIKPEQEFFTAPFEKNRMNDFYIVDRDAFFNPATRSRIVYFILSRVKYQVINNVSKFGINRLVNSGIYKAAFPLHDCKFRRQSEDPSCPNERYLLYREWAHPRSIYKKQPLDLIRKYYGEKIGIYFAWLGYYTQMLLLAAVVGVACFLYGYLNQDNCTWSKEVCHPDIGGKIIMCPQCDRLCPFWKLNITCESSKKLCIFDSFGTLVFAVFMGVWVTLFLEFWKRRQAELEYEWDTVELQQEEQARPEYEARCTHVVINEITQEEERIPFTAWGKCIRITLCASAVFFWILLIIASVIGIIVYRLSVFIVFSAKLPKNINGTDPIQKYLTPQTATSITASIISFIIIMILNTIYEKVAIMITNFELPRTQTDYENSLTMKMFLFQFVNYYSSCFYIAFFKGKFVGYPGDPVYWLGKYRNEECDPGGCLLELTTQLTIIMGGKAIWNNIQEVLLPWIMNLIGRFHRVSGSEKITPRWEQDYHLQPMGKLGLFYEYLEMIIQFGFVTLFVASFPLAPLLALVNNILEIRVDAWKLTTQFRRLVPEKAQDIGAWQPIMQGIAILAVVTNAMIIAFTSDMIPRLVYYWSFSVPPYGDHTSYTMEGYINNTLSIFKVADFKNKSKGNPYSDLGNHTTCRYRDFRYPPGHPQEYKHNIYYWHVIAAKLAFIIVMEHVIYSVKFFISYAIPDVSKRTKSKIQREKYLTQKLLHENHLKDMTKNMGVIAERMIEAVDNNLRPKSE
UniProt Q3LXA3: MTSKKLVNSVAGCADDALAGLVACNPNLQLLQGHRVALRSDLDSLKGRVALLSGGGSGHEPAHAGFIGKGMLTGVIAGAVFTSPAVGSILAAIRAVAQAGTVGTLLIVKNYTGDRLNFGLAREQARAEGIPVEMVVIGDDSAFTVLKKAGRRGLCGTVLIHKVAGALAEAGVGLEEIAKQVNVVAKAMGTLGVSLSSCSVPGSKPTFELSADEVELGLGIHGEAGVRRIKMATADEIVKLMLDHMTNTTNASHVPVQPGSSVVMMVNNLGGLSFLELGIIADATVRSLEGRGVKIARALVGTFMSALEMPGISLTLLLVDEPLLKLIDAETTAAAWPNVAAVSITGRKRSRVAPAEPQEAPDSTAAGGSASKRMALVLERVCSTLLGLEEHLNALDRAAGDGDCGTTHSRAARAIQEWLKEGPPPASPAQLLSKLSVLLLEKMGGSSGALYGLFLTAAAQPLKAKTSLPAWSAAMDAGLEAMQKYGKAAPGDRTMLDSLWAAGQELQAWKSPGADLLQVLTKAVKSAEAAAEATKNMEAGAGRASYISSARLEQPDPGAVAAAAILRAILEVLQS
UniProt Q16637, whole entry: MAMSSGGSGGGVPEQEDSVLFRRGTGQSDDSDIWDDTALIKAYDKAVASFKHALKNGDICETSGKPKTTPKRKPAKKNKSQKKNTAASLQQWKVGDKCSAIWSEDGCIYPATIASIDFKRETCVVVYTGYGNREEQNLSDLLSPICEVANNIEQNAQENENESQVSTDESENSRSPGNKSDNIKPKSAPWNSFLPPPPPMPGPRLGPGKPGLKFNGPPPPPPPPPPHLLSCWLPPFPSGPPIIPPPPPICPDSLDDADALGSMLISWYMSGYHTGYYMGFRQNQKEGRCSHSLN

compound: COC(=O)/C=C/c1ccccc1 [methyl cinnamate]; assay: log2 ratio of iodoacetamide-alkyne labeling of the cysteine site, DMSO over compound (competition); higher = stronger covalent engagement of the cysteine by the compound, active = 1 or more; details: 500 µM; treatment time 1 h; system: HEK293T cell lysate
Summary of the method: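 After 1 h at ambient temperature with vehicle or electrophile (500 µM), HEK293T lysate (2 mg/mL) was labelled for 1 h with iodoacetamide alkyne and clicked to sCIP-TMT reagents. Pooled samples were trypsin-digested overnight at 37 °C, streptavidin-enriched, acid-eluted and analysed by Orbitrap Eclipse LC-MS/MS with FAIMS, then quantified in FragPipe over three replicates with duplicate channels. A cysteine's log2 competition ratio is its mean control-channel over mean compound-channel reporter intensity. Cysteines quantified in only one replicate were not included.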

log2 ratio of iodoacetamide-alkyne labeling, inactive:
ELF2 C307 (UniProt Q15723) 0.497, AKIRIN2 C3 (UniProt Q53H80) 0.244, NCOA1 C831 (UniProt Q15788) 0.119, DLGAP5 C592 (UniProt Q15398) 0.0919, MAPRE1 C228 (UniProt Q15691) 0.352, DPYSL2 C504 (UniProt Q16555) 0.034, UniProt Q15750_C62 0.335, LLGL1 C483 (UniProt Q15334) 0.0381, PPA1 C113 (UniProt Q15181) 0.225, SEC23B C434 (UniProt Q15437) 0.166, CCDC58 C74 (UniProt Q4VC31) 0.325, TRIP11 C1722 (UniProt Q15643) 0.107, FASTKD1 C46 (UniProt Q53R41) 0.228, NDUFA5 C17 (UniProt Q16718) 0.301, UniProt Q567V2_C198 0.133, UniProt Q15149_C3336 0.491, PCBP2 C301 (UniProt Q15366) 0.122, R3HDM1 C304 (UniProt Q15032) -0.117, KIF14 C442 (UniProt Q15058) 0.345, ELAVL1 C13 (UniProt Q15717) 0.0749, KIF14 C471 (UniProt Q15058) 0.177, ANO6 C105 (UniProt Q4KMQ2) 0.207, UniProt Q15418_C552 0.104, UniProt Q15365_C201 0.0112, HNRNPUL2 C57 (UniProt Q1KMD3) 0.262, CSRP2 C167 (UniProt Q16527) 0.114, SETDB1 C92 (UniProt Q15047) 0.189, MED1 C800 (UniProt Q15648) -0.19, UniProt Q3LXA3_C13 -0.448, DLGAP5 C448 (UniProt Q15398) -0.21, EEA1 C1405 (UniProt Q15075) 0.124, UniProt Q16637_C60 0.438, LRRC41 C588 (UniProt Q15345) 0.0228, GLYR1 C231 (UniProt Q49A26) -0.274, EFTUD2 C842 (UniProt Q15029) 0.336, UniProt Q15365_C355 0.222, UAP1L1 C332 (UniProt Q3KQV9) -0.0332
